Reference: patent US20090181090A1, “Protein-Based Carrier System for Overcoming Resistance in Tumour Cells” (priority 2005, published 2009)
Some entries share one result that the patent states for a list of compounds.

Tested on: UKF-NB3 Par. cells
Experiment: MTT cytotoxicity test, parental neuroblastoma cells
Type: cell-based, human
Conditions: at 3 ng/ml of doxorubicin, FIG. 1

COc1cccc2c1C(=O)c1c(O)c3c(c(O)c1C2=O)C[C@@](O)(C(=O)CO)C[C@@H]3O[C@H]1C[C@H](N)[C@H](O)[C@H](C)O1 [Dxr-Soln, doxorubicin]
cell viability: below 50%
